Article PMC9811620

Protein sequences, listed by entry. Tags and fused reporters are not part of them.
UniProt Q9JKF1: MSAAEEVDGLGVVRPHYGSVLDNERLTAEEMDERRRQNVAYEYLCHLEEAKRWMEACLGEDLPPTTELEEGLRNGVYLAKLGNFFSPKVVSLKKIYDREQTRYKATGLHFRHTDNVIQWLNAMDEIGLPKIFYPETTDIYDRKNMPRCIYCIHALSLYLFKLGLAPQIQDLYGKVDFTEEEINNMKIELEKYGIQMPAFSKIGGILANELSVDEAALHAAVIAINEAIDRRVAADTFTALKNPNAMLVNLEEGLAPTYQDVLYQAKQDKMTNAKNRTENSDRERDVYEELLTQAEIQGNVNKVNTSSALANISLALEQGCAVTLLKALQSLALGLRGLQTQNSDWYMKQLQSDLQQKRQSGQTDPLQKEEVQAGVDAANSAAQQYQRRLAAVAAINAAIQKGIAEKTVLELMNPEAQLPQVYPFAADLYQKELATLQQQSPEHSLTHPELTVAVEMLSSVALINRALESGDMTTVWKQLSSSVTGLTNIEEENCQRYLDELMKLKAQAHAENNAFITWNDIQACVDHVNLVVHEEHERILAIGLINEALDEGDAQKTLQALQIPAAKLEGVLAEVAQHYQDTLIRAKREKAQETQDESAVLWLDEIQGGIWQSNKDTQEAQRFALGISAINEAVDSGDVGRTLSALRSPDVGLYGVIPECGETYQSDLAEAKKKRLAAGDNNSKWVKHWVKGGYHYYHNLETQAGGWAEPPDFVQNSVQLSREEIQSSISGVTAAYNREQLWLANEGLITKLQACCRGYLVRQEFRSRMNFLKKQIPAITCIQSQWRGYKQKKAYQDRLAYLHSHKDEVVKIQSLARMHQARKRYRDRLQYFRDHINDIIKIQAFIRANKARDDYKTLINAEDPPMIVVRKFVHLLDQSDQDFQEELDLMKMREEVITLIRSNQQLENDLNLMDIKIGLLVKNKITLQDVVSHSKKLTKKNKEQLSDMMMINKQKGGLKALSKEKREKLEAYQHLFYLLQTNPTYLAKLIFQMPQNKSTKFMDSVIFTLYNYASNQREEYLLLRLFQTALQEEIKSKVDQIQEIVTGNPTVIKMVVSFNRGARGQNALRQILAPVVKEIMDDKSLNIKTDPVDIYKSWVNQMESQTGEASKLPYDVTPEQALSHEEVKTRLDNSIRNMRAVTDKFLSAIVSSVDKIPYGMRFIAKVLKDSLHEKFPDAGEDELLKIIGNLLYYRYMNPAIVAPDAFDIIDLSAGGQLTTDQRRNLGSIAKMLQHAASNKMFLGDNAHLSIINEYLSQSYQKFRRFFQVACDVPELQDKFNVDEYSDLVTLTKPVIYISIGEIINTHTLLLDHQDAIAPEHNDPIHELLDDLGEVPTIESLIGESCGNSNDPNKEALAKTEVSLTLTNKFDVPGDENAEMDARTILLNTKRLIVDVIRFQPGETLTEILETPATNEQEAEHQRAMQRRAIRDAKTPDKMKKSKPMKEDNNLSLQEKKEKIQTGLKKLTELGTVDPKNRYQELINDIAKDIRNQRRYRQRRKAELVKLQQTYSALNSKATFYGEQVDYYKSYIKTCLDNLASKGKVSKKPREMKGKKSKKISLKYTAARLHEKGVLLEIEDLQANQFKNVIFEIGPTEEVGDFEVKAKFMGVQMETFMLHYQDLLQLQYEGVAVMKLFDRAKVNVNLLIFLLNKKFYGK

Target: T1, Gasdermin D (GSDMD), endogenous in YAMC cells (mouse (endogenous in YAMC)) (UniProt Q9D8T2)
T1 sequence: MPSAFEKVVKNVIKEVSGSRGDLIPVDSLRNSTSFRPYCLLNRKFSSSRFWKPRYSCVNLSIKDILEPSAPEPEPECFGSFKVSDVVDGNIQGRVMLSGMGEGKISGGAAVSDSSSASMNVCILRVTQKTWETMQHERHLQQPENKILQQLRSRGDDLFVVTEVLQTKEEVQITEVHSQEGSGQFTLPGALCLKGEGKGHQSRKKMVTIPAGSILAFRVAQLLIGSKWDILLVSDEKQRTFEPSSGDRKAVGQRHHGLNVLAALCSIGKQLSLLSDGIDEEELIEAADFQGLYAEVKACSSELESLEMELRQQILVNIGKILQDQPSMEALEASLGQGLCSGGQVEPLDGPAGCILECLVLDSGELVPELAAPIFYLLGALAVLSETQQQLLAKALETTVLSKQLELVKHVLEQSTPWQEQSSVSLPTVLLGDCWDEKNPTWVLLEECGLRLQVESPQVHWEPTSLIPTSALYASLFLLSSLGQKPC
Experiment: affinity purification with mass spectrometry; immunoprecipitation of GSDMD from lysates of LPS-stimulated YAMCs, control IgG alongside, SDS-PAGE, in-gel trypsin digestion, LC-MS/MS, label-free spectral counting

binding: binds
Substance: Ras GTPase-activating-like protein IQGAP1, endogenous in YAMC cells (from UniProt Q9JKF1 1-1657)

No constants are given. Whether binding was seen depends on the method and setting. In cells and extracts the contact can be indirect. A yes stands for co-enrichment or nearness to the bait. Other partners may have been found.
